Assay [1] has as its target T1, Pre6 tagged with slmGFP (yeast) (UniProt P40303).
T1 sequence: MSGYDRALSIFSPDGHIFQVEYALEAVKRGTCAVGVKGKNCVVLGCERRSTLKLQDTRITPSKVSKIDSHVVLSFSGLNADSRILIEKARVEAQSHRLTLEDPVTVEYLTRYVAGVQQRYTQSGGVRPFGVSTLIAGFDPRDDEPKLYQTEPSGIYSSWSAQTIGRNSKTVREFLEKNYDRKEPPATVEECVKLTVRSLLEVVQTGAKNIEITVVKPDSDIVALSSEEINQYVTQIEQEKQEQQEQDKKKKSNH
Put plainly: single-color fluorescence lifetime cross-correlation spectroscopy.

The target in assay [2] is T1, Pre6 tagged with slmGFP (yeast). Briefly: combined sc/dc-FLCCS.
Assay [3] shares this target. Put plainly: dual color fluorescence lifetime cross-correlation spectroscopy.
Assay [4] deals with T2, Rpn7 tagged with Envy (yeast) (UniProt Q06103).
T2 sequence: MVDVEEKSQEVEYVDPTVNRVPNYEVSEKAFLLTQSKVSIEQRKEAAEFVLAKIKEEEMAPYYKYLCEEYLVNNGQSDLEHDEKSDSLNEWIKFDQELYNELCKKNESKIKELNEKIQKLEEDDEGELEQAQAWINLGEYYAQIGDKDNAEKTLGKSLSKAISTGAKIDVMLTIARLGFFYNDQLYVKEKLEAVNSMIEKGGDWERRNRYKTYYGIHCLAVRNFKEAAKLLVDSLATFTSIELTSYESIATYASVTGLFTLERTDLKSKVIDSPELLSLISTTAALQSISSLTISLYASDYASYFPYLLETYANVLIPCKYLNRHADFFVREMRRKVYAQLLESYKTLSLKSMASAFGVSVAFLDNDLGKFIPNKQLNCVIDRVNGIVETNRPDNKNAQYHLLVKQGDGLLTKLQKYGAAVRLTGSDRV
Put plainly: combined sc/dc-FLCCS.

The target of the next assay is T3, Envy-Ste11 (yeast) (UniProt P23561).
T3 sequence: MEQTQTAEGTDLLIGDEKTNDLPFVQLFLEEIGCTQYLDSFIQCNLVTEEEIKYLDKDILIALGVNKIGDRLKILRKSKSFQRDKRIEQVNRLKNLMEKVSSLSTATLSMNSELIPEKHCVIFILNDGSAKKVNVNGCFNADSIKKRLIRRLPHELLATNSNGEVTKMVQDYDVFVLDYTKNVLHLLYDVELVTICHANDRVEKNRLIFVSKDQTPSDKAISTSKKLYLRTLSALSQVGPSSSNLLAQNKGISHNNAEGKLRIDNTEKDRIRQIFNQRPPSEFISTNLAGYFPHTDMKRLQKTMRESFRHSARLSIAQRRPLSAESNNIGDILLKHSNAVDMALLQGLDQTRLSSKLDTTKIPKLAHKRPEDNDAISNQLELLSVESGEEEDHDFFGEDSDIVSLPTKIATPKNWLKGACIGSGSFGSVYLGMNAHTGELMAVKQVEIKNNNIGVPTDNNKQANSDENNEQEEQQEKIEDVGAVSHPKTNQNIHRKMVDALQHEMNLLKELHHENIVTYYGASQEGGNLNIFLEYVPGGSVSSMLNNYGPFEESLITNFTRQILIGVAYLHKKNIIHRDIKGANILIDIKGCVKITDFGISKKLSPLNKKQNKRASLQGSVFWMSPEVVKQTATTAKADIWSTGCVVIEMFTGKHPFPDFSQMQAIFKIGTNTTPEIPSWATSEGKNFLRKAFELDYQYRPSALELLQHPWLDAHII
Put plainly: single-color fluorescence lifetime cross-correlation spectroscopy.

These are yes or no findings as the source states them, for the method shown. Some results given as binding are weak or reduced against the parent protein; the word gives no strength. Tags and fused reporters may be left off the sequences shown.

B1: Rpn7 tagged with Envy (protein, UniProt Q06103 1-429)
chain: T2 sequence
With B1, the binding entry in assay [1] and in assay [2] was “binds” throughout.

B2: Rpn7 tagged with 3mCherry (protein, UniProt Q06103 1-429)
chain: T2 sequence
With B2, the binding entry in assay [3] is listed as “binds”.

B3: Rad23 tagged with 3mCherry (protein, UniProt P32628 1-398)
chain: MVSLTFKNFKKEKVPLDLEPSNTILETKTKLAQSISCEESQIKLIYSGKVLQDSKTVSECGLKDGDQVVFMVSQKKSTKTKVTEPPIAPESATTPGRENSTEASPSTDASAAPAATAPEGSQPQEEQTATTERTESASTPGFVVGTERNETIERIMEMGYQREEVERALRAAFNNPDRAVEYLLMGIPENLRQPEPQQQTAAAAEQPSTAATTAEQPAEDDLFAQAAQGGNASSGALGTTGGATDAAQGGPPGSIGLTVEDLLSLRQVVSGNPEALAPLLENISARYPQLREHIMANPEVFVSMLLEAVGDNMQDVMEGADDMVEGEDIEVTGEAAAAGLGQGEGEGSFQVDYTPEDDQAISRLCELGFERDLVIQVYFACDKNEEAAANILFSDHAD
In the case of B3, the binding entry in assay [4] and in assay [2] was “binds” in each case.

B4: slmGFP-Don1 (protein, UniProt Q05610 1-365)
chain: MGKKNRKGKENNAAKTSFLKVENIKNTNSGLELPSQDYTNVEEKESSPKTDFPLITKEHVNTKTDSNILDYPTIGDLVSSVEKLCVLKELKIAFPEVDDTLIKAILIASQGVLEPAFNSLLYYSSPEENTDFALPMKPISVEDYSKINVSEILQREIFDDIEDEFSGQGINGSMVISKIESELSSLAEHIGNISTPGSNREVAESTRNVAVAEGHNTILSNEDSILKGKEKGKEEEKEKGEEKGVNSLKGAAVKVVAKSLKNNRIPVTVKRNEPSNNLFDVLNCDESEEEEEQDVETNTSNQERKNQGGNTEVPEAQRDSADRLPAKDDGGYKSAFGTDSCGLFAADAKDEKKQVHPSRQELSFT
On to B4, for which, in the assay with Envy-Ste11 (yeast), the binding result is reported as “no binding”.

Source of the values: article doi:10.1101/2020.01.23.917435.
